Source: patent US9486455B2, “Compounds for modulating TRPV3 function” (HYDRA BIOSCIENCES, INC., priority 2007, dated 2016)
Some of these results come from one statement about several compounds together.

By UniProt entry, the sequences of proteins in these tests, tags left out.
UniProt Q8NER1, whole entry: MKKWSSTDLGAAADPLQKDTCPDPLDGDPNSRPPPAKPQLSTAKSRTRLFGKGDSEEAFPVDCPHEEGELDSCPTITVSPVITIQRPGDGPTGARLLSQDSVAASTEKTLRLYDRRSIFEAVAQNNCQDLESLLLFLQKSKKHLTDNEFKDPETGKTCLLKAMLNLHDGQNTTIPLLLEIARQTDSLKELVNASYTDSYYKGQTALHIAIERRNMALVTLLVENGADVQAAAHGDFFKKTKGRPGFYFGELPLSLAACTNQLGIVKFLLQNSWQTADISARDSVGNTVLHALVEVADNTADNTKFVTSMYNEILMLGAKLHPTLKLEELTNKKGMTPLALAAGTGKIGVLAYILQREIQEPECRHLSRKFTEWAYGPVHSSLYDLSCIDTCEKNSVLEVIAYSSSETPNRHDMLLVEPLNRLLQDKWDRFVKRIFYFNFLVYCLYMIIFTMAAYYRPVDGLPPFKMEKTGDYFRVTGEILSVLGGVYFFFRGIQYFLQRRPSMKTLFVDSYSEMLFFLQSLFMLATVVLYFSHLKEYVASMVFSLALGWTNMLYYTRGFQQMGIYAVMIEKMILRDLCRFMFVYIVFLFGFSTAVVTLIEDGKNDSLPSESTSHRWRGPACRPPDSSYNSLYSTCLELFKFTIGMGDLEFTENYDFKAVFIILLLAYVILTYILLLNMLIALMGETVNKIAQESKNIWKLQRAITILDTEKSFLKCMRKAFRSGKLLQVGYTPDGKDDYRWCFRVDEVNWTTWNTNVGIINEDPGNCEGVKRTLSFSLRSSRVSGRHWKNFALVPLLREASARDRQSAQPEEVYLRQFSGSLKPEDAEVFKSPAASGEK

What follows are compounds tested against T1, human TRPV1 (Homo sapiens, UniProt Q8NER1) (assay: Ion channel selectivity, TRPV1 channel current). Conditions: tested up to 30 μM.
T1 construct: expressed in transfected cells
Format: cell-based

Question: `COc1cccc(C=Cc2nc3cnccc3c(=O)n2-c2c(C)cccc2C)c1O` [Compound 8] was tested. Which IC50 did it give?
Answer: Its IC50 is ≥ 20 µM.

Question: For `Cc1cccc(C)c1-n1c(/C=C/c2cccc(OC(F)(F)F)c2O)nc2ccccc2c1=O` [Compound 55], which IC50 is on record?
Answer: The IC50 was ≥ 20 µM.

Question: With `COc1nccc(/C=C/c2nc3ccccc3c(=O)n2-c2c(C)cccc2C)c1O` [Compound 37] as the compound, how does the IC50 read?
Answer: Its IC50 is ≥ 20 µM.

Question: For `CCOc1cccc(/C=C/c2nc3cnccc3c(=O)n2-c2c(C)cccc2C)c1O` [Compound 11], which IC50 is on record?
Answer: Its IC50 is ≥ 20 µM.

Question: With `CCOc1cccc(C=Cc2nc3ccccc3c(=O)n2-c2c(C)cccc2C)c1O` [Compound 49] as the compound, how does the IC50 read?
Answer: The IC50 was ≥ 20 µM.

Question: With `CCc1cccc(CC)c1-n1c(/C=C/c2cccc(OC)c2O)nc2ccccc2c1=O` [Compound 50] as the compound, how does the IC50 read?
Answer: Its IC50 is ≥ 20 µM.
